In the supplement of paper PMC11732987, “Enantioselective OTUD7B fragment discovery through chemoproteomics screening and high-throughput optimisation” (Communications Chemistry, 2025):
The other results are listed elsewhere or left out. The data scatter; read single values as rough.

Protein sequences, listed by entry. Tags and fused reporters are not part of them. Lines headed by an entry give the natural chain unless they say otherwise; changes in a name come on top. Residues count along the entry.
UniProt Q01850: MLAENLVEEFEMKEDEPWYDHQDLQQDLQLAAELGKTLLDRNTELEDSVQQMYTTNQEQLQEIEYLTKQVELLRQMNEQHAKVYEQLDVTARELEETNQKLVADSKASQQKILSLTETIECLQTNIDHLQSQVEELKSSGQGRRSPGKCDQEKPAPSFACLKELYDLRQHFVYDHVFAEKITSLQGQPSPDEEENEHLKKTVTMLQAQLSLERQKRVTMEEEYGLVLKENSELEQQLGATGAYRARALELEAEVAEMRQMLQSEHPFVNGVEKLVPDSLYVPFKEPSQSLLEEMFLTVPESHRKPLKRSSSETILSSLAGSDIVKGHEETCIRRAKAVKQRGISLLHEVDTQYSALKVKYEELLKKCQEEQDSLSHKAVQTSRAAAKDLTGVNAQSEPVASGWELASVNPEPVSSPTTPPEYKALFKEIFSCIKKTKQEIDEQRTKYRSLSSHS
UniProt P49454: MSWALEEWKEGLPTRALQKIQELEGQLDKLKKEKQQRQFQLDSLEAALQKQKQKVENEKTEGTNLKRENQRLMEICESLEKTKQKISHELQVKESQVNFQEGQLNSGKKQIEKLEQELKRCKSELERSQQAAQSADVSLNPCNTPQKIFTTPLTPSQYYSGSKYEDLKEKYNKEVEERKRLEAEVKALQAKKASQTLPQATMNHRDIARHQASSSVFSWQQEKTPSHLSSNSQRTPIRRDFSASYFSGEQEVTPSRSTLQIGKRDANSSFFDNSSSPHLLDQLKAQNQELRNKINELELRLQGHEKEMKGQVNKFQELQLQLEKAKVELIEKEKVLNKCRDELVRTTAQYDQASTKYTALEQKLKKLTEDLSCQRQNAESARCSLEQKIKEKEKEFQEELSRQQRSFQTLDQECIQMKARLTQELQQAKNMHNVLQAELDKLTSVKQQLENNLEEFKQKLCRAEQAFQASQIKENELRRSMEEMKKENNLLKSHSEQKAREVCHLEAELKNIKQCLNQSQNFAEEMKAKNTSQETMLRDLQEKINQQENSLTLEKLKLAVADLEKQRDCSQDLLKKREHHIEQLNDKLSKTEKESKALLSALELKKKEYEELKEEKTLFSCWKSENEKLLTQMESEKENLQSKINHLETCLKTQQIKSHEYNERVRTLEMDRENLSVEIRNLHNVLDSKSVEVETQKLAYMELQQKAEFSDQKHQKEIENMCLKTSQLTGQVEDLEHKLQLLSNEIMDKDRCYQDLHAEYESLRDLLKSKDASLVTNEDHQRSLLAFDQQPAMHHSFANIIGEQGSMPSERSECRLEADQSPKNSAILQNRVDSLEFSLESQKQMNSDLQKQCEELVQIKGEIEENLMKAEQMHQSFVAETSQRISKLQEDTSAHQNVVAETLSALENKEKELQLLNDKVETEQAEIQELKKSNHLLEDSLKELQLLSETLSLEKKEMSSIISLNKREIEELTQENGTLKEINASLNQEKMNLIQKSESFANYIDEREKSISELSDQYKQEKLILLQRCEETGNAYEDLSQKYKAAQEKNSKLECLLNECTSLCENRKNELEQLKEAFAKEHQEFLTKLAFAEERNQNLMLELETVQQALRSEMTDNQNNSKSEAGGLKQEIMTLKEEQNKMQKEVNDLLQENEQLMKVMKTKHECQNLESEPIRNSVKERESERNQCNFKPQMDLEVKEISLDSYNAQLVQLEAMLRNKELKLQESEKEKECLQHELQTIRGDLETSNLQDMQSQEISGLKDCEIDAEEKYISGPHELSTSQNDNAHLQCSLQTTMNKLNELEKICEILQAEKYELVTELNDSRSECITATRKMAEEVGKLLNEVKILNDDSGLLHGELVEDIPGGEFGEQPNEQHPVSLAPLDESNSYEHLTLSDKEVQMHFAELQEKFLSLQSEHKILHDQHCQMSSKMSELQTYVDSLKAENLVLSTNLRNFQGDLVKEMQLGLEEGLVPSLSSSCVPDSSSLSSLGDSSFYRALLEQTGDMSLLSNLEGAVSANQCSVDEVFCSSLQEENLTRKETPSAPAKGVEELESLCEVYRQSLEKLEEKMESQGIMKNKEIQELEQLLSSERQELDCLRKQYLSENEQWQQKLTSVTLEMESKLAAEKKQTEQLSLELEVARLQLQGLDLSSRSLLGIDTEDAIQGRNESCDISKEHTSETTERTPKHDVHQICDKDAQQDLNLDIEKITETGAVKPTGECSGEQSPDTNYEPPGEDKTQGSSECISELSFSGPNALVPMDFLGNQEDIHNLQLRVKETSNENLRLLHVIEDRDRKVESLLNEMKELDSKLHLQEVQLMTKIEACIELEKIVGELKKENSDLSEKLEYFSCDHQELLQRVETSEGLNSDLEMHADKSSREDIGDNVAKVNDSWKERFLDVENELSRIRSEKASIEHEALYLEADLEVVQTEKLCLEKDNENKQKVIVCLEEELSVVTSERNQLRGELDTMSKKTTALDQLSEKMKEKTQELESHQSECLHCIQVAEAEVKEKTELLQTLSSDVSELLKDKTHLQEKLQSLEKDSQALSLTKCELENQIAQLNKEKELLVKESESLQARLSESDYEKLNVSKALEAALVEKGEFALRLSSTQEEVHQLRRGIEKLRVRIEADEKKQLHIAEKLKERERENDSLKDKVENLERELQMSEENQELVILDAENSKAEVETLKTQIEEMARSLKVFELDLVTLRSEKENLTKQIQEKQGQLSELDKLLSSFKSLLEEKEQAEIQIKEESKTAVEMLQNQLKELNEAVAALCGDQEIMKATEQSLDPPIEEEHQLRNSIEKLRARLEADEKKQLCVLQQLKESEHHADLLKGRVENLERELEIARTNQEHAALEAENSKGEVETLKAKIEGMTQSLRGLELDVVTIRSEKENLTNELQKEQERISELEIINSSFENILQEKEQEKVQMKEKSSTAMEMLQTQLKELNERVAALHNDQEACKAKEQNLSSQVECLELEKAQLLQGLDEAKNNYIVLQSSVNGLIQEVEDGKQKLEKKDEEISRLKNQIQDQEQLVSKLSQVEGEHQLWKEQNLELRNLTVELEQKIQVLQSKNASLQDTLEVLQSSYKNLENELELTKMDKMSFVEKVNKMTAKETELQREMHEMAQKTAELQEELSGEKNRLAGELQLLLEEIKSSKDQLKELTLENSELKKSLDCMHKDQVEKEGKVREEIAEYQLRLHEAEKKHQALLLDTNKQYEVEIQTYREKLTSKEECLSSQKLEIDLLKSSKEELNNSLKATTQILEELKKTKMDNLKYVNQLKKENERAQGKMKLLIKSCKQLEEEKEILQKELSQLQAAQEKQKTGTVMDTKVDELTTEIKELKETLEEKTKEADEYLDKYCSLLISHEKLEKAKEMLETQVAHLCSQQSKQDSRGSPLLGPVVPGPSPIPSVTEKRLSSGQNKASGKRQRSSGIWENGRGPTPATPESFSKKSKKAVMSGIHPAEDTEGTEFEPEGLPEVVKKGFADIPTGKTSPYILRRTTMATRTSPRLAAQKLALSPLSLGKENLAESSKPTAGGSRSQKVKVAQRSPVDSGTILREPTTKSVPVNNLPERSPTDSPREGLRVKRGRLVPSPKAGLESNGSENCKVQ
UniProt Q99741, 238-261: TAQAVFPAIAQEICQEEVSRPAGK
UniProt Q9Y281, whole entry, looked up: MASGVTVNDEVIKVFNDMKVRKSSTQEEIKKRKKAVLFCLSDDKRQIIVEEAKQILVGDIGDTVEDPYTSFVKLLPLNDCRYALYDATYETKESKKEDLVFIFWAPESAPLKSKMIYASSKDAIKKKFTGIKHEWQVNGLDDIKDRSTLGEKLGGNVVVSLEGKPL
UniProt P48509: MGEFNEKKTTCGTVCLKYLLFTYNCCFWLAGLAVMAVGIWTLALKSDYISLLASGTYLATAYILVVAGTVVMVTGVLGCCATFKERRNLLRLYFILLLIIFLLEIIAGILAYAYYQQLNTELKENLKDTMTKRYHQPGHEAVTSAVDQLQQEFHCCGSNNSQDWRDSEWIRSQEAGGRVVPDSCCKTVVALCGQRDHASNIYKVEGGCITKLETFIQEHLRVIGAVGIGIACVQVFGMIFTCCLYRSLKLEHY
UniProt O14647: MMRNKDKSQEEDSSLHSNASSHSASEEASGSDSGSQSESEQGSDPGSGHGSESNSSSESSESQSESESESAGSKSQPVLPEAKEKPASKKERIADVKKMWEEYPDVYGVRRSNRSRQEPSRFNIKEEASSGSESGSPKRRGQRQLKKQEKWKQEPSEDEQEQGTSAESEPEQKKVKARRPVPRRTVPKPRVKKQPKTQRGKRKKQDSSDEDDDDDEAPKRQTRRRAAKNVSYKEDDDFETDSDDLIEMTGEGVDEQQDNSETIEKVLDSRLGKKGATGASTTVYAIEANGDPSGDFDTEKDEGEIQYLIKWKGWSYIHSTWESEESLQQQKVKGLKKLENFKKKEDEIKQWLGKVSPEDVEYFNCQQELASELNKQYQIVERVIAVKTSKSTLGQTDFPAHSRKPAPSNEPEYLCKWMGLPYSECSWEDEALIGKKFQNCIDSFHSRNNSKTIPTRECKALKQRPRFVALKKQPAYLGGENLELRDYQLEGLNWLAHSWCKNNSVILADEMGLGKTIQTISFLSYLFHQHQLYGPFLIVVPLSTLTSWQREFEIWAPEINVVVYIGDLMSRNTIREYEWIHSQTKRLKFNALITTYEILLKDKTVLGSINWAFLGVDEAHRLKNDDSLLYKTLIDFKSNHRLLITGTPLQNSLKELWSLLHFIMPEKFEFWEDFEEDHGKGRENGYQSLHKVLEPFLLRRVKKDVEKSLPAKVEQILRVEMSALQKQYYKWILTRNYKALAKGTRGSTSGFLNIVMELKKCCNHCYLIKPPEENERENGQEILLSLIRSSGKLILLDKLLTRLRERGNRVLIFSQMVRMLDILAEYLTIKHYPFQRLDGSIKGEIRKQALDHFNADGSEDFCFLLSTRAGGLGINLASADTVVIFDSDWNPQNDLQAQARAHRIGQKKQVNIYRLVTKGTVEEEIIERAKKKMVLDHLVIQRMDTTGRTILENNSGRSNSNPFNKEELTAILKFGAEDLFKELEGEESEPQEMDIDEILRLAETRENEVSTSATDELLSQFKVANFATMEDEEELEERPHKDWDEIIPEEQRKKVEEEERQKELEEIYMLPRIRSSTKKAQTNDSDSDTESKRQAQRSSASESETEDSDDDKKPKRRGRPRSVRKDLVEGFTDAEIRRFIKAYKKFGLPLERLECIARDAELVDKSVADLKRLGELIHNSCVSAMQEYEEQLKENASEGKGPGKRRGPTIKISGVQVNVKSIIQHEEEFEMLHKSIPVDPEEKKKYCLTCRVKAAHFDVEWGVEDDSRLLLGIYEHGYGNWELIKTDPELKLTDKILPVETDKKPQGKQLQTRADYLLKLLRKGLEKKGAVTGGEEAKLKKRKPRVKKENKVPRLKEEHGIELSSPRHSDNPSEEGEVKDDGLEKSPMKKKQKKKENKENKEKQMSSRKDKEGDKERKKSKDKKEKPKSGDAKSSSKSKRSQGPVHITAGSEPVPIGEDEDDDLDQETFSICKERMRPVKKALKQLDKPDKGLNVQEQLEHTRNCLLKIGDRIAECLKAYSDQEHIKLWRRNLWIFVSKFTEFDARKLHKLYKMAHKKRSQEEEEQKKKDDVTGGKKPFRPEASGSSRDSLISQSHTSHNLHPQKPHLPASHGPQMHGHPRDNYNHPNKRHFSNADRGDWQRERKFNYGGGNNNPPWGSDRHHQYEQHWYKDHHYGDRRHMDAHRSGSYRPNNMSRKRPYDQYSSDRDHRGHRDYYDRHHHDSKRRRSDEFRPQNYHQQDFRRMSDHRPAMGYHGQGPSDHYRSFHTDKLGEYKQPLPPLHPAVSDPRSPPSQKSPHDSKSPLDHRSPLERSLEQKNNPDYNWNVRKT
UniProt Q9C0F1, 349-368: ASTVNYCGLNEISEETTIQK
UniProt Q15131: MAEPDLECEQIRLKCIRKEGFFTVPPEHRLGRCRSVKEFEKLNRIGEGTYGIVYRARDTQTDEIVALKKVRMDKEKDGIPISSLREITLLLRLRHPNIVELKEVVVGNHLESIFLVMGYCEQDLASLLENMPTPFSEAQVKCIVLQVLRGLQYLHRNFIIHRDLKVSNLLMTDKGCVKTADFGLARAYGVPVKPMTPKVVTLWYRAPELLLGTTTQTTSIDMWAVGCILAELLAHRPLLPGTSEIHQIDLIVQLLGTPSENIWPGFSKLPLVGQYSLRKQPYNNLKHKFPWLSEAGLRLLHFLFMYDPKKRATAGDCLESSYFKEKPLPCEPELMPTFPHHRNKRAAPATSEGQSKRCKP
UniProt Q00534, whole entry, looked up: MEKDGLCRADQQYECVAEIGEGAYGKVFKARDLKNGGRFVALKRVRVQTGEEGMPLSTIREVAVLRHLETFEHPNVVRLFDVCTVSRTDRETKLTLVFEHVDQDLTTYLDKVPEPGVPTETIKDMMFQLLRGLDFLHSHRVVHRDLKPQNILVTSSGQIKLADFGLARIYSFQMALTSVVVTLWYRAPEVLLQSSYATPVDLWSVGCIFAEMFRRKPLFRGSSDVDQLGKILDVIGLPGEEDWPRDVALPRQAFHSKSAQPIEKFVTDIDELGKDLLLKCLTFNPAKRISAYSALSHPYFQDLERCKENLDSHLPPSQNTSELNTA

compound: ClCC(=O)N[C@@H]1CCCc2ccccc12; experiment: log2 mean competition ratio of IA-DTB cysteine labelling (DMSO/compound) (log2 ratio); higher = stronger cysteine engagement by compound; details: 50 µM; treatment time: 4 h; cell line lysate: HEK293T
Procedure: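 IA-DTB competitive cysteine chemoproteomics in HEK293T RIPA lysate. Lysates were treated with compound 29 or 30 at 50 or 200 µM for 4 h, then IA-DTB (500 µM, 1 h), trypsin-digested, NeutrAvidin-enriched and analysed by diaPASEF. Competition ratio = intensity DMSO / intensity compound (n=4 treated, n=64 DMSO); binding: mean log2 CR ≥ 1 and p ≤ 0.05 plus QC filters. Target is the cysteine site.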

Row | Target | log2 mean competition ratio
1 | CDR2 C367 (UniProt Q01850) | 0.224
2 | CCDC8 C256 (UniProt Q9H0W5) | -0.0909
3 | CENPF C2052 (UniProt P49454) | 0.00497
4 | CEP55 C440 (UniProt Q53EZ4) | -0.281
5 | CEP135 C473 (UniProt Q66GS9) | 0.377
6 | CECR2 C1084 | -0.271
7 | CDC6 C251 (UniProt Q99741) | -0.314
8 | CDR2 C331 (UniProt Q01850) | -0.0689
9 | CFL2 C39 (UniProt Q9Y281) | -0.151
10 | CD151 C192 (UniProt P48509) | 0.277
11 | CHD2 C415 (UniProt O14647) | 0.0539
12 | CEP44 C355 (UniProt Q9C0F1) | -0.274
13 | CDK10 C317 (UniProt Q15131) | -0.117
14 | CEBPZ C560 (UniProt Q03701) | 0.0664
15 | CENPE C2219 (UniProt Q02224) | 0.639
16 | CDK6 C83 (UniProt Q00534) | 0.471
17 | CCDC106 C184 | -0.0192
18 | CDK5RAP2 C249 (UniProt Q96SN8) | 0.124
19 | CDK2 C177 (UniProt P24941) | 0.242
20 | CCP110 C535 (UniProt O43303) | 0.256

same assay, conditions: 200 µM; treatment time: 4 h; cell line lysate: HEK293T

Row | Target | log2 mean competition ratio
21 | CDR2 C367 (UniProt Q01850) | -0.0972
22 | CCDC8 C256 (UniProt Q9H0W5) | -0.0123
23 | CENPF C2052 (UniProt P49454) | -0.435
24 | CEP55 C440 (UniProt Q53EZ4) | 0.637
25 | CEP135 C473 (UniProt Q66GS9) | 0.162
26 | CECR2 C1084 | -0.108
27 | CDC6 C251 (UniProt Q99741) | 0.0725
28 | CDR2 C331 (UniProt Q01850) | -0.0174
29 | CFL2 C39 (UniProt Q9Y281) | 0.286
30 | CD151 C192 (UniProt P48509) | 0.107
31 | CHD2 C415 (UniProt O14647) | 0.656
32 | CEP44 C355 (UniProt Q9C0F1) | 0.349
33 | CDK10 C317 (UniProt Q15131) | -0.0741
34 | CEBPZ C560 (UniProt Q03701) | 0.414
35 | CENPE C2219 (UniProt Q02224) | 0.389
36 | CDK6 C83 (UniProt Q00534) | -0.0525
37 | CCDC106 C184 | 0.228
38 | CDK5RAP2 C249 (UniProt Q96SN8) | 0.162
39 | CDK2 C177 (UniProt P24941) | -0.137
40 | CCP110 C535 (UniProt O43303) | 0.21
